Assay results: paper PMC6451337, “The Toxoplasma gondii dense granule protein TgGRA3 interacts with host Golgi and dysregulates anterograde transport” (Biology Open, 2019)
No constants are given. Whether binding was seen depends on the method and setting.

Molecular target: GRA3_HA-Δ110-128 (Toxoplasma gondii) (UniProt B6KEU8)
Experiment: native gel or EMSA; proteins cleaved from glutathione-Sepharose beads with PreScission protease in 25 mM Tris pH 8, 1 mM DTT, 0.5 mM PMSF, 1 mM EDTA; 10% Tris-glycine native gel, unheated against heated; Coomassie Blue stain and Western blot; both purified

## GRA3_HA-Δ110-128 (from UniProt B6KEU8 43-161) (domain or fragment)
  binding: no binding
